According to publication doi:10.1101/513028:
Changes are numbered by the printed parent chain. Numbers in names are those of the source. No constants are given. Whether binding was seen depends on the method and setting. Binding seen in cells or lysates may run through a third protein. Some binding calls cover weakened binding; strength is not graded here. Tags and fused reporters may be left off the sequences shown.

Sequences of proteins named here, by UniProt entry; tags and fusion partners are left off. A change or cut given only in a name is not applied to a line headed by its entry. A line that says so, or that is headed by a name, gives the form on record, which may keep a tag or linker.
UniProt P40793: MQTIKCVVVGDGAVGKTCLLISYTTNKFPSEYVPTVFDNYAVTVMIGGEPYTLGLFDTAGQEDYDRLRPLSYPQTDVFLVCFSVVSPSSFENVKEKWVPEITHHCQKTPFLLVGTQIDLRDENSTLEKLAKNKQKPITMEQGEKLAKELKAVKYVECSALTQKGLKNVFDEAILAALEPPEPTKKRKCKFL
GST::Cdc42^V12 (P40793, form named): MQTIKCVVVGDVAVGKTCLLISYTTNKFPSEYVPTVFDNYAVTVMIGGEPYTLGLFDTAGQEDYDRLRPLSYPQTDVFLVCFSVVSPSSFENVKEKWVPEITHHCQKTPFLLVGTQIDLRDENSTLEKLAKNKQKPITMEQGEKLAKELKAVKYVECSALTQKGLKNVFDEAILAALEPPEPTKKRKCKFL

Tests used:
[1] = target: T1, Par6^KPLG170-173AAAA::Flag (Drosophila) (UniProt O97111); assay: co-IP
T1 sequence: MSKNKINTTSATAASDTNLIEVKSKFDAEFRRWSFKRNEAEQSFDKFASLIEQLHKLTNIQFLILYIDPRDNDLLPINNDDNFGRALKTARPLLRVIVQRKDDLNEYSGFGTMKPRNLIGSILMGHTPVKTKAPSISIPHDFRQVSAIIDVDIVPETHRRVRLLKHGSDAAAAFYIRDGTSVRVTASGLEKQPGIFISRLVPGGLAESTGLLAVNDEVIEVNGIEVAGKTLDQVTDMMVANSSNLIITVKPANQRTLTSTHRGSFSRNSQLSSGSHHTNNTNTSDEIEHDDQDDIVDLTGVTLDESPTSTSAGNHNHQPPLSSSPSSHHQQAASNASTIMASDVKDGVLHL

[2] = target: T2, Par6^Δ139P::Flag (Drosophila) (UniProt O97111); assay: co-IP
T2 sequence: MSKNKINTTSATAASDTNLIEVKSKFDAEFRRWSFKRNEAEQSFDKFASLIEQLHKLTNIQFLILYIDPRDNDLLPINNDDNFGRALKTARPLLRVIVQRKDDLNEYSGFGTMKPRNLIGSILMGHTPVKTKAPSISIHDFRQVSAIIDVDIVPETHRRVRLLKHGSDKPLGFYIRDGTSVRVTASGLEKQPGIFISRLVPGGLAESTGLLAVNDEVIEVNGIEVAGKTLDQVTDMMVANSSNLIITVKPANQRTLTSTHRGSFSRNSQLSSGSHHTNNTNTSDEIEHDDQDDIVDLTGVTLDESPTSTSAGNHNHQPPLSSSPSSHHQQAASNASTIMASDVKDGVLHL

[3] = target: T3, Par6^K23A::Flag (Drosophila) (UniProt O97111); assay: co-IP
T3 sequence: T1 sequence with K23A, A170K, A171P, A172L, A173G

[4] = target: T4, Par6::Flag (wild type) (Drosophila) (UniProt O97111); assay: co-IP
T4 sequence: T1 sequence with A170K, A171P, A172L, A173G

[5] = target: GST::Cdc42^V12 (Drosophila) (UniProt P40793); assay: pull-down

B1: aPKC (endogenous) (enzyme, UniProt A1Z9X0 1-606)
chain: MQKMPSQILNDGSSVSLNSASMNMANTPNSITVKTAYNGQIIITTINKNISYEELCYEIRNICRFPLDQPFTIKWVDEENDPCTISTKMELDEAIRLYEMNFDSQLVIHVFPNVPQAPGLSCDGEDRSIYRRGARRWRKLYRVNGHIFQAKRFNRRAFCAYCQDRIWGLGRQGFKCIQCKLLVHKKCHKLVQKHCTDQPEPLVKERAEESSDPIPVPLPPLPYEAMSGGAEACETHDHAHIVAPPPPEDPLEPGTQRQYSLNDFELIRVIGRGSYAKVLMVELRRTRRIYAMKVIKKALVTDDEDIDWVQTEKHVFETASNHPFLVGLHSCFQTPSRLFFVIEFVRGGDLMYHMQRQRRLPEEHARFYAAEISLALNFLHEKGIIYRDLKLDNVLLDHEGHIKLTDYGMCKEGIRPGDTTSTFCGTPNYIAPEILRGEDYGFSVDWWALGVLLYEMLAGRSPFDLAGASENPDQNTEDYLFQVILEKTIRIPRSLSVRAASVLKGFLNKNPADRLGCHRESAFMDIVSHPFFKNMDWELLERKQVTPPFKPRLDSDRDLANFPPEFTGEAVQLTPDDDHVIDNIDQSEFEGFEYVNPLLMSLEDCV
[1]
  binding: binds
[2]
  binding: binds
[3]
  binding: no binding
[4]
  binding: binds

B2: Par6::Flag (wild type) (protein, UniProt O97111 1-351)
chain: T1 sequence with A170K, A171P, A172L, A173G
[5]
  binding: binds

B3: Par6^KPLG170-173AAAA::Flag (protein, UniProt O97111 1-351)
chain: T1 sequence
[5]
  binding: binds

B4: Par6^K23A::Flag (protein, UniProt O97111 1-351)
chain: T1 sequence with K23A, A170K, A171P, A172L, A173G
[5]
  binding: binds

B5: Par6^Δ139P::Flag (protein, UniProt O97111 1-351)
chain: T2 sequence
[5]
  binding: no binding
